Data taken from the supplement of paper PMC12819154, “High-throughput peptide-centric local stability assay extends protein–ligand identification to membrane proteins, tissues and bacteria” (Nature Structural & Molecular Biology, 2025).
The other results are listed elsewhere or left out. Most entries show no effect beyond the scatter of the controls.

The chains behind the UniProt entries cited, without tags or fusion partners. Where a name states a change or a piece, a line headed by the entry shows the natural chain unless it says otherwise.
UniProt Q86VN1: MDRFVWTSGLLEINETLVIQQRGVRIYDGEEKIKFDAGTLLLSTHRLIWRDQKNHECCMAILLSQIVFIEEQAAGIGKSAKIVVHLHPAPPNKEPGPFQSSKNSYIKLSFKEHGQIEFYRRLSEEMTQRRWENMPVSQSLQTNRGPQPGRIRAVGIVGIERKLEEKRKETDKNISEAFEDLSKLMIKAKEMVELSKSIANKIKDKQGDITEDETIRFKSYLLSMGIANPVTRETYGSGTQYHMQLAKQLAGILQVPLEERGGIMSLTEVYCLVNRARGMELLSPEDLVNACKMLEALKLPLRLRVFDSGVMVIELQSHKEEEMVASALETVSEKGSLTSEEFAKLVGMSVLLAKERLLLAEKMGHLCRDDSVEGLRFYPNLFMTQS
UniProt Q86UE4: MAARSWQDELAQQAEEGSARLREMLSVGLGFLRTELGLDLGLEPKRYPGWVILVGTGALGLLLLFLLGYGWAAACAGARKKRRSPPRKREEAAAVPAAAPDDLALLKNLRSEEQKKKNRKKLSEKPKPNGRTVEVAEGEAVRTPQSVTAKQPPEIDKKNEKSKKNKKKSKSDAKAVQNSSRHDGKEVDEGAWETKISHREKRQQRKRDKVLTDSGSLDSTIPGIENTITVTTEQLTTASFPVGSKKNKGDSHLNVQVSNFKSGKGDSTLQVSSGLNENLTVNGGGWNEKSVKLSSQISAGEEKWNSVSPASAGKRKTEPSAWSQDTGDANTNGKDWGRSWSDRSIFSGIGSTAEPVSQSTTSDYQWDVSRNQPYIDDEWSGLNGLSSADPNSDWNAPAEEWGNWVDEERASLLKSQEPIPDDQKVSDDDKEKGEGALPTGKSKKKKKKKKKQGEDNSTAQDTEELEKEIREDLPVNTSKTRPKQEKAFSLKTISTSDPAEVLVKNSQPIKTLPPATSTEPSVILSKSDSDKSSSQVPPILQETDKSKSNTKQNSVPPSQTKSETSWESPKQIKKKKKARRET
UniProt Q7Z4W1: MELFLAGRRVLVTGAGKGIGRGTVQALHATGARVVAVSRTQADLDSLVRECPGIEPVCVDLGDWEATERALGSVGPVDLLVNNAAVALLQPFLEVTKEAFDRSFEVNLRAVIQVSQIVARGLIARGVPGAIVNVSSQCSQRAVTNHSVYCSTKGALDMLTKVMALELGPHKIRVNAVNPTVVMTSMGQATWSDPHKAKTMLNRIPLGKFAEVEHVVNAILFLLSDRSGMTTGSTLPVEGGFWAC
UniProt Q86UD0: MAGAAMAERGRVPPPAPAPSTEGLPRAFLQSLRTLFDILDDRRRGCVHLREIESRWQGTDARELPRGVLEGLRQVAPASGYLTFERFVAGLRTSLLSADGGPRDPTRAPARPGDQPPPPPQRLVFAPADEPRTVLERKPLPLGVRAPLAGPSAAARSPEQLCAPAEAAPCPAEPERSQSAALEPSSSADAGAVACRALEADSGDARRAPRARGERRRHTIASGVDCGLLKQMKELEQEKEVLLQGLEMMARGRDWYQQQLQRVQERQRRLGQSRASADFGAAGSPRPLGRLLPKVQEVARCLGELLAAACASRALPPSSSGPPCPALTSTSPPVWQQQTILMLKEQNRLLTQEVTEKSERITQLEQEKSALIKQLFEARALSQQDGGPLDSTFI
UniProt Q6ZS17: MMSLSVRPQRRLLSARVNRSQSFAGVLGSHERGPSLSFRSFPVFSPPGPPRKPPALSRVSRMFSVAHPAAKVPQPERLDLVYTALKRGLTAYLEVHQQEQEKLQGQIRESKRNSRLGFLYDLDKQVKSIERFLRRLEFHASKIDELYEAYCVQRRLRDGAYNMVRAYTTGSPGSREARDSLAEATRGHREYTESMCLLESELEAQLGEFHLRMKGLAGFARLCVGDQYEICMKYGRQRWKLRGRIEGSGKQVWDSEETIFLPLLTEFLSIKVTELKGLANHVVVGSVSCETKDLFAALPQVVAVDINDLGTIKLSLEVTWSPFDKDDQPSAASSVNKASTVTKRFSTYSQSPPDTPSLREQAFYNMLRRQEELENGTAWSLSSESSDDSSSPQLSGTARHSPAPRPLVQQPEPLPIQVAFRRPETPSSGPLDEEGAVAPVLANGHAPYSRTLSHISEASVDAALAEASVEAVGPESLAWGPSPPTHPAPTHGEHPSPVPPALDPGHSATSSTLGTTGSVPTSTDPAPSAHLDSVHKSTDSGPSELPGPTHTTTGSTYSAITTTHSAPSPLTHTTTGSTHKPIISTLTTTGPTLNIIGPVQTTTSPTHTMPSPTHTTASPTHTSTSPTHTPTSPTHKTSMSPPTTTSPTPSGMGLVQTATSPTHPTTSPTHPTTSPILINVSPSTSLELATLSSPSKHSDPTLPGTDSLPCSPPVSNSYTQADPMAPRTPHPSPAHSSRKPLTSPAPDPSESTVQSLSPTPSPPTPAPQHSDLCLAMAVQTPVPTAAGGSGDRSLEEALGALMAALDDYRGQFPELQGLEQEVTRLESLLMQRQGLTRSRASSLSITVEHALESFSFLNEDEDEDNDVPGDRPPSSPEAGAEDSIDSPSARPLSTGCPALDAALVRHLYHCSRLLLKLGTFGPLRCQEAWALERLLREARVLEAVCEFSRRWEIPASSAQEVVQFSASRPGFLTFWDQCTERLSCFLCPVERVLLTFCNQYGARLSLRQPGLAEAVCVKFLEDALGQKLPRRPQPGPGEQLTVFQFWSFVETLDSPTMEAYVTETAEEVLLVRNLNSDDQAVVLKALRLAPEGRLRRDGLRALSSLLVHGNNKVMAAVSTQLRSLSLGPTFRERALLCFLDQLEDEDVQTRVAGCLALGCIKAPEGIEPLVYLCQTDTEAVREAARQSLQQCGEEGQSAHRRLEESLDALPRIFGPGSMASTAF
UniProt Q86VX2, whole entry: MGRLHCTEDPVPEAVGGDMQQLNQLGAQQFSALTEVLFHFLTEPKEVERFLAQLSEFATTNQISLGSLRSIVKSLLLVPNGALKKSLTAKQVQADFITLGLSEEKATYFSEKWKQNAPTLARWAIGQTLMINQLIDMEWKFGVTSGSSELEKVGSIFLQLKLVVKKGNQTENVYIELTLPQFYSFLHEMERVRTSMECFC
UniProt Q6ZTN6: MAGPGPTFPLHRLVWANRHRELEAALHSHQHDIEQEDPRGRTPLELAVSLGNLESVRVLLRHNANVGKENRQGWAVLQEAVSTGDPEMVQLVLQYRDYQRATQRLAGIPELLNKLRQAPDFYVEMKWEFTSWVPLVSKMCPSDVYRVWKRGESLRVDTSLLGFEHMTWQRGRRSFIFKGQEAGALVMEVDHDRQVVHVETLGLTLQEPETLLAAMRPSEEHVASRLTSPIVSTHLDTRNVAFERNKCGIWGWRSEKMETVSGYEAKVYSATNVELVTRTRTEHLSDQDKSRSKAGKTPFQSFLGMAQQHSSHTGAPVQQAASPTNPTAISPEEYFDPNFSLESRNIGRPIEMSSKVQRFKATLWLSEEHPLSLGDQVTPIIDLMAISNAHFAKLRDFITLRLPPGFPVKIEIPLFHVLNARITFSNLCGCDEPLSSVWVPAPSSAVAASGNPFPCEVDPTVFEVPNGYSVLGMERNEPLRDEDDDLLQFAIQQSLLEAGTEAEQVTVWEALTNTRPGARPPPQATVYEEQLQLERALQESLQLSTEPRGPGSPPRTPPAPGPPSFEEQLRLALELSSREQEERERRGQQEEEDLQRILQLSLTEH
UniProt Q86SX3: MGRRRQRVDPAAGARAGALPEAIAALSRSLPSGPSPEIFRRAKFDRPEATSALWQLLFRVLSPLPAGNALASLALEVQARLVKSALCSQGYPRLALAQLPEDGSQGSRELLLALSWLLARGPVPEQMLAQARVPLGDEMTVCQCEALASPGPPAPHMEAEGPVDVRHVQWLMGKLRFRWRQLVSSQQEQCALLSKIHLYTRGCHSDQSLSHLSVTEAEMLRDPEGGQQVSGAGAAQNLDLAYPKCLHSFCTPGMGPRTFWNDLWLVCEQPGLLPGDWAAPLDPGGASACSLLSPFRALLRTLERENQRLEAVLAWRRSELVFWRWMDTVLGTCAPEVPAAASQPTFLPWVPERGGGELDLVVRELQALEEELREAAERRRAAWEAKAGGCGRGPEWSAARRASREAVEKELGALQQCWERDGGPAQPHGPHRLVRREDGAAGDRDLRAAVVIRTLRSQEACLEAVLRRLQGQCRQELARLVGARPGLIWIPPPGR
UniProt Q7KZF4: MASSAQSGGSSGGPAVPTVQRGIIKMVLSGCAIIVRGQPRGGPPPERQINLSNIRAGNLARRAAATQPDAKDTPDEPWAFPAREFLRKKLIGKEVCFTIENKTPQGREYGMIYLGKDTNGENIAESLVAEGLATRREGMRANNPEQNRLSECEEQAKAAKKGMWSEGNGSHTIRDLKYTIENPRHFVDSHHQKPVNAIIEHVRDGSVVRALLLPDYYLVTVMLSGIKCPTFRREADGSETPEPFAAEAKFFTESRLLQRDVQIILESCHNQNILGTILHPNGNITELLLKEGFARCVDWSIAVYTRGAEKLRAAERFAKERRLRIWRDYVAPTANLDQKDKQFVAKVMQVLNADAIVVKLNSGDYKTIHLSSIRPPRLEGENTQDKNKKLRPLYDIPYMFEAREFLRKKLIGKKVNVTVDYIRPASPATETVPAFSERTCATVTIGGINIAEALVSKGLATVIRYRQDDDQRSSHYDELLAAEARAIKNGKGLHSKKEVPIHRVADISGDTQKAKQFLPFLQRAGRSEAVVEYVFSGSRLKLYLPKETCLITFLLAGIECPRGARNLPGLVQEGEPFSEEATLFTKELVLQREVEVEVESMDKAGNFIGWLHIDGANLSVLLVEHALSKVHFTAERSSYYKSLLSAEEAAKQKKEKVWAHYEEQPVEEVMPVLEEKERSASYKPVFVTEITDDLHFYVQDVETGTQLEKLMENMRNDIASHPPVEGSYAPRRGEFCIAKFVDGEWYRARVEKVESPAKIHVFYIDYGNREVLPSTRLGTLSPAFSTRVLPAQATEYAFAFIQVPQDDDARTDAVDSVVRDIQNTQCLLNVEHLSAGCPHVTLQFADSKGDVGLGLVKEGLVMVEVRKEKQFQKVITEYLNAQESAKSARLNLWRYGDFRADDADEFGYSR
UniProt Q86TB9: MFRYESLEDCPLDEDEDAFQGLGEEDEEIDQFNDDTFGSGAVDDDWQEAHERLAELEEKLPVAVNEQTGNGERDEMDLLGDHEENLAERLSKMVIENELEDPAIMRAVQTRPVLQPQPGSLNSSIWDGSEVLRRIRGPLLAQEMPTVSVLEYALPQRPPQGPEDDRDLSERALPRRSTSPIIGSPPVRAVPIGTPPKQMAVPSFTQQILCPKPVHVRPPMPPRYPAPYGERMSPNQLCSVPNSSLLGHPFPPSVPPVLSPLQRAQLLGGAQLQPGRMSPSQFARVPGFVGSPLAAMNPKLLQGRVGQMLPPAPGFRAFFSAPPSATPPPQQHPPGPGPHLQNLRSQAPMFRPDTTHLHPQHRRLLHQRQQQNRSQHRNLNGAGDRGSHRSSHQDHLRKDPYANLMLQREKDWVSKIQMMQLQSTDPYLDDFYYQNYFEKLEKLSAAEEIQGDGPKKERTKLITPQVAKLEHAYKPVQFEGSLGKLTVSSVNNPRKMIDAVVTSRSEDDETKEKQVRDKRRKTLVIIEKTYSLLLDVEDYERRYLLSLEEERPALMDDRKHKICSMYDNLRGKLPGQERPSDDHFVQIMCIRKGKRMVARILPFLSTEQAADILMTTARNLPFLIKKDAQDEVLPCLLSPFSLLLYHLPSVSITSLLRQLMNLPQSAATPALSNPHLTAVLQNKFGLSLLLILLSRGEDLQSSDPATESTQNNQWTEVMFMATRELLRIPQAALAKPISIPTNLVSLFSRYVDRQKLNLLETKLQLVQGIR
UniProt Q7L2J0: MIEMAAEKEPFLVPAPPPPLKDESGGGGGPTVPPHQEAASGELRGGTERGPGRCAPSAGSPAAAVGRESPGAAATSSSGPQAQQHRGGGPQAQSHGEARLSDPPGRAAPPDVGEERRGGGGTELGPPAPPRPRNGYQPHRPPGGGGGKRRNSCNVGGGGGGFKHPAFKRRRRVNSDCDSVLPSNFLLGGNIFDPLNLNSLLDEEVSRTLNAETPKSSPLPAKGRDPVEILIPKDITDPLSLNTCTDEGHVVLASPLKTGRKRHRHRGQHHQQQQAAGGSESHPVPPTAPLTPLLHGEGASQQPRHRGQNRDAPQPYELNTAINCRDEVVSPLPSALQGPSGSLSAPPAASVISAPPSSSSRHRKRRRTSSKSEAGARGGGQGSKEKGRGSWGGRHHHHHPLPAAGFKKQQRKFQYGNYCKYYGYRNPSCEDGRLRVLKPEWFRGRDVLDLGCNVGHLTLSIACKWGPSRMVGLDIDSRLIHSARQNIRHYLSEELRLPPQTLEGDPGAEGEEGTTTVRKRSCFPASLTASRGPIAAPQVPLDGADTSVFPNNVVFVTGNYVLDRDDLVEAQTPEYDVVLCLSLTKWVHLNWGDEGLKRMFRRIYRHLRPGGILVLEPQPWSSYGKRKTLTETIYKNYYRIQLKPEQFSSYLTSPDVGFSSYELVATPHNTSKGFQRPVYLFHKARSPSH

What follows are targets tested with CN[C@@H]1C[C@H]2O[C@@](C)([C@@H]1OC)n1c3ccccc3c3c4c(c5c6ccccc6n2c5c31)C(=O)NC4 [staurosporine] (assay: log2 fold change of tryptic peptide abundance, ligand vs vehicle (limited proteolysis) (log2 ratio); higher = more trypsin-susceptible (destabilized)). Details: ligand concentration: 20 uM; sample: K562 cleared lysate; digestion: 4 min, 22 C (HT-PELSA RT4min, Orbitrap Astral).

Target | log2 fold change
UniProt Q86VZ2 (peptide sequence: AQLALSSSANQSK, peptide start residue: 11) | 0.202
NUDT18 (peptide sequence: LQGSSVVPVNR, peptide start residue: 313) (UniProt Q6ZVK8) | 0.215
DNAH12 (peptide sequence: KENELMAK, peptide start residue: 601) (UniProt Q6ZR08) | 0.0226
UniProt Q7Z7L9 (peptide sequence: EQMLTMLPK, peptide start residue: 96) | -0.192
VPS36 (peptide sequence: AVGIVGIER, peptide start residue: 153) (UniProt Q86VN1) | -0.106
RSRC2 (peptide sequence: SQSAEIWEKLNFGNKDQNVK, peptide start residue: 348) (UniProt Q7L4I2) | -0.777
MTDH (peptide sequence: EVDEGAWETK, peptide start residue: 186) (UniProt Q86UE4) | 0.148
N4BP2 (peptide sequence: TSSVQSDKK, peptide start residue: 810) (UniProt Q86UW6) | 1.27
SSH2 (peptide sequence: KNSIHELLLER, peptide start residue: 782) (UniProt Q76I76) | -0.282
DCXR (peptide sequence: AVIQVSQIVAR, peptide start residue: 110) (UniProt Q7Z4W1) | 0.554
UniProt Q765P7 (peptide sequence: VGSHEQPSGATLQR, peptide start residue: 381) | -0.123
UniProt Q86UD0 (peptide sequence: HTIASGVDCGLLK, peptide start residue: 218) | -0.436
UniProt Q6ZS17 (peptide sequence: PLVQQPEPLPIQVAFR, peptide start residue: 406) | 0.469
AACS (peptide sequence: MASGHAFQPDLVKR, peptide start residue: 589) (UniProt Q86V21) | 0.486
COMMD7 (peptide sequence: SLLLVPNGALKK, peptide start residue: 74) (UniProt Q86VX2) | 0.498
LUZP1 (peptide sequence: ADKASDTSSETVFGKR, peptide start residue: 527) (UniProt Q86V48) | -0.709
ANKRD13D (peptide sequence: RGQQEEEDLQR, peptide start residue: 586) (UniProt Q6ZTN6) | 0.115
UniProt Q86SX3 (peptide sequence: ELQALEEELR, peptide start residue: 364) | -0.431
SND1 (peptide sequence: EVEVEVESMDK, peptide start residue: 593) (UniProt Q7KZF4) | -0.148
CYB5R4 (peptide sequence: SQVTDTLAK, peptide start residue: 154) (UniProt Q7L1T6) | -0.149
PATL1 (peptide sequence: LITPQVAK, peptide start residue: 461) (UniProt Q86TB9) | 0.187
MON1B (peptide sequence: RCTAPGLALSVLAVGGR, peptide start residue: 267) (UniProt Q7L1V2) | -0.244
MEPCE (peptide sequence: AAPPDVGEER, peptide start residue: 107) (UniProt Q7L2J0) | -0.282
TADA2B (peptide sequence: EFDDLFENMHKEK, peptide start residue: 270) (UniProt Q86TJ2) | -0.425
FAM160B2 (peptide sequence: QNVSPAPEGQV, peptide start residue: 733) (UniProt Q86V87) | 0.4
SUPT6H (peptide sequence: DHYQDPVPGITPSSSSR, peptide start residue: 1513) (UniProt Q7KZ85) | 0.357
UniProt Q7Z2T5 (peptide sequence: AEASGCRRW, peptide start residue: 725) | 0.835
UniProt Q86U38 (peptide sequence: CGVHVLQSALLQLPR, peptide start residue: 141) | 0.216
GALNT5 (peptide sequence: APGQFGRPVVVPHGK, peptide start residue: 437) (UniProt Q7Z7M9) | 0.697

Two entries picked at random from those above:
Target | log2 fold change
PATL1 (peptide sequence: LITPQVAK, peptide start residue: 461) (UniProt Q86TB9) | 0.187
UniProt Q7Z2T5 (peptide sequence: AEASGCRRW, peptide start residue: 725) | 0.835
